Like-named read-outs stand apart in the source and are kept apart here. Results are given in words; binding and its absence hold for the method and conditions named. Binding seen in cells or lysates may run through a third protein. Here binding means that the protein was enriched with, or labelled near, the bait; the list need not be complete. For part of these data: Sequences can lack the tags named with a protein. One block for each molecule: values may come before it.
Legend:
[1] = target: Glc7-FLAG, endogenously expressed (budding yeast (endogenous in yeast cells)) (UniProt P32598); assay: affinity purification with mass spectrometry; endogenous Glc7-FLAG immunoprecipitated from yeast lysate with anti-FLAG agarose beads, 4 °C, 4 h; IP buffer 40 mM HEPES pH7.5, 150 mM NaCl, 10% glycerol, 0.1% Tween-20; on-bead trypsin digest, LC-MS
[2] = target: Glc7-FLAG, endogenously expressed (budding yeast (endogenous in yeast cells)) (UniProt P32598); assay: as above; remark: listed apart in the source

By UniProt entry, the sequences of proteins in these tests, tags left out.
UniProt P32598: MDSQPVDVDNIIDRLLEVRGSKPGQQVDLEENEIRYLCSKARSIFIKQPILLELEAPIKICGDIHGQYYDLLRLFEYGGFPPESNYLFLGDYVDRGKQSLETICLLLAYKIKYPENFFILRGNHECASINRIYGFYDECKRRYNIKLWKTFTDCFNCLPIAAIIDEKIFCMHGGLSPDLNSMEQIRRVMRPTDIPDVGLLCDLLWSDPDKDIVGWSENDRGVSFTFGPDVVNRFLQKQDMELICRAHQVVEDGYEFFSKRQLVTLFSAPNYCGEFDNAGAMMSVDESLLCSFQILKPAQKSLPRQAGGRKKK
UniProt Q00416: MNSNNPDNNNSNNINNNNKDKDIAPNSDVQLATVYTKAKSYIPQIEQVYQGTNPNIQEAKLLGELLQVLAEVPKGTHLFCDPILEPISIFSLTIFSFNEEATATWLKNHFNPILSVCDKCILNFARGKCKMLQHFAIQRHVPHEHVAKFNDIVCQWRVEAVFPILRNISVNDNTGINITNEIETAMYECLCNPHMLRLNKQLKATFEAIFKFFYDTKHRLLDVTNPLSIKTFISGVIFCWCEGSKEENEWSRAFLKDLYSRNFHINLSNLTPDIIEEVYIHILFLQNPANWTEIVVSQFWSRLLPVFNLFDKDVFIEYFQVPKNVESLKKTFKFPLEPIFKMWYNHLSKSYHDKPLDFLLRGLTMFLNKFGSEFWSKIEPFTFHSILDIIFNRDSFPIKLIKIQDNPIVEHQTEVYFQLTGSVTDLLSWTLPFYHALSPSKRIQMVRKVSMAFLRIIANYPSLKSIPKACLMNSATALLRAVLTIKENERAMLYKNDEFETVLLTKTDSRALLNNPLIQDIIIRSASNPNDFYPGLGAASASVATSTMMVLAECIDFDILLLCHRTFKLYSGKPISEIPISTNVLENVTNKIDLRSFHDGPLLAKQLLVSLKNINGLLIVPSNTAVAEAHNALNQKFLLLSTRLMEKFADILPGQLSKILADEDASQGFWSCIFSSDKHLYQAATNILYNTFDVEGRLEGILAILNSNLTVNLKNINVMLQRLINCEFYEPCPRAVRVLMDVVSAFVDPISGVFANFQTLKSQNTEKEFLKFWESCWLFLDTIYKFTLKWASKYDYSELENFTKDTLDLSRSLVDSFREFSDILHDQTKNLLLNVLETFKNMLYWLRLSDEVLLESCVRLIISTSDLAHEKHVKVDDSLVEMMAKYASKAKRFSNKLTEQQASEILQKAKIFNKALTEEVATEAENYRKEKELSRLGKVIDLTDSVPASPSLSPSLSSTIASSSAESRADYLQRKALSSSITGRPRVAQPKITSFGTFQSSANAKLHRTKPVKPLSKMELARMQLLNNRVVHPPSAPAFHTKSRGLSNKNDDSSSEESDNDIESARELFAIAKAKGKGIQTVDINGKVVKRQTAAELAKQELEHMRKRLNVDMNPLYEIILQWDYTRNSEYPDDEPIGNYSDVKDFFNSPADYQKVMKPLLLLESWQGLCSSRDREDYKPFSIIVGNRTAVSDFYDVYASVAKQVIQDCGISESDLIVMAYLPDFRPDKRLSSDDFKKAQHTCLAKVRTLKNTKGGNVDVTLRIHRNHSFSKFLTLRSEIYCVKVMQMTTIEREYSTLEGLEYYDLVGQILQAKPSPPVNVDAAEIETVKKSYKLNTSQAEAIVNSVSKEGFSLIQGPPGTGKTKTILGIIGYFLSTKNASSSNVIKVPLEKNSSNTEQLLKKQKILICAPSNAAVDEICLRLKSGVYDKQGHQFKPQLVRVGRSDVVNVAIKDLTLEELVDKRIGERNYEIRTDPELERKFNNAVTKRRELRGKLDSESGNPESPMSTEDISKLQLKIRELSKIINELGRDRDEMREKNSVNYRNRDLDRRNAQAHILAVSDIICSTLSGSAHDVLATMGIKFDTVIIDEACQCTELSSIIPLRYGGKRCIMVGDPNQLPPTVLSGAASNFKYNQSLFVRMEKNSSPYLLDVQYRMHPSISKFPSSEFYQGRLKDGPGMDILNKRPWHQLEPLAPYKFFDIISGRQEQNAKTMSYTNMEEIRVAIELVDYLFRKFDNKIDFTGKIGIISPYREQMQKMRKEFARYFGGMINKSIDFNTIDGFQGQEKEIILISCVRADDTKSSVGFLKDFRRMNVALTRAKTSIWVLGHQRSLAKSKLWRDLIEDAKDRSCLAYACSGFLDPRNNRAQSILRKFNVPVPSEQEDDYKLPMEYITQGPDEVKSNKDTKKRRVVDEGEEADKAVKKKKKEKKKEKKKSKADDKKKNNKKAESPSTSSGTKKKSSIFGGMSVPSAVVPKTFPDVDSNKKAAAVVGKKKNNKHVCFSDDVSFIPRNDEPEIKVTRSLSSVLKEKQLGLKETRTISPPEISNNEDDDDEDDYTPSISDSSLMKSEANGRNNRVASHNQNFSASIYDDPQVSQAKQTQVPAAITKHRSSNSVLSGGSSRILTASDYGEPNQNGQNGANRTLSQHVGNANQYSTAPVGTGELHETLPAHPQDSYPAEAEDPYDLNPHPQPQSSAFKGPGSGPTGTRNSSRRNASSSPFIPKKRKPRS
UniProt P29539: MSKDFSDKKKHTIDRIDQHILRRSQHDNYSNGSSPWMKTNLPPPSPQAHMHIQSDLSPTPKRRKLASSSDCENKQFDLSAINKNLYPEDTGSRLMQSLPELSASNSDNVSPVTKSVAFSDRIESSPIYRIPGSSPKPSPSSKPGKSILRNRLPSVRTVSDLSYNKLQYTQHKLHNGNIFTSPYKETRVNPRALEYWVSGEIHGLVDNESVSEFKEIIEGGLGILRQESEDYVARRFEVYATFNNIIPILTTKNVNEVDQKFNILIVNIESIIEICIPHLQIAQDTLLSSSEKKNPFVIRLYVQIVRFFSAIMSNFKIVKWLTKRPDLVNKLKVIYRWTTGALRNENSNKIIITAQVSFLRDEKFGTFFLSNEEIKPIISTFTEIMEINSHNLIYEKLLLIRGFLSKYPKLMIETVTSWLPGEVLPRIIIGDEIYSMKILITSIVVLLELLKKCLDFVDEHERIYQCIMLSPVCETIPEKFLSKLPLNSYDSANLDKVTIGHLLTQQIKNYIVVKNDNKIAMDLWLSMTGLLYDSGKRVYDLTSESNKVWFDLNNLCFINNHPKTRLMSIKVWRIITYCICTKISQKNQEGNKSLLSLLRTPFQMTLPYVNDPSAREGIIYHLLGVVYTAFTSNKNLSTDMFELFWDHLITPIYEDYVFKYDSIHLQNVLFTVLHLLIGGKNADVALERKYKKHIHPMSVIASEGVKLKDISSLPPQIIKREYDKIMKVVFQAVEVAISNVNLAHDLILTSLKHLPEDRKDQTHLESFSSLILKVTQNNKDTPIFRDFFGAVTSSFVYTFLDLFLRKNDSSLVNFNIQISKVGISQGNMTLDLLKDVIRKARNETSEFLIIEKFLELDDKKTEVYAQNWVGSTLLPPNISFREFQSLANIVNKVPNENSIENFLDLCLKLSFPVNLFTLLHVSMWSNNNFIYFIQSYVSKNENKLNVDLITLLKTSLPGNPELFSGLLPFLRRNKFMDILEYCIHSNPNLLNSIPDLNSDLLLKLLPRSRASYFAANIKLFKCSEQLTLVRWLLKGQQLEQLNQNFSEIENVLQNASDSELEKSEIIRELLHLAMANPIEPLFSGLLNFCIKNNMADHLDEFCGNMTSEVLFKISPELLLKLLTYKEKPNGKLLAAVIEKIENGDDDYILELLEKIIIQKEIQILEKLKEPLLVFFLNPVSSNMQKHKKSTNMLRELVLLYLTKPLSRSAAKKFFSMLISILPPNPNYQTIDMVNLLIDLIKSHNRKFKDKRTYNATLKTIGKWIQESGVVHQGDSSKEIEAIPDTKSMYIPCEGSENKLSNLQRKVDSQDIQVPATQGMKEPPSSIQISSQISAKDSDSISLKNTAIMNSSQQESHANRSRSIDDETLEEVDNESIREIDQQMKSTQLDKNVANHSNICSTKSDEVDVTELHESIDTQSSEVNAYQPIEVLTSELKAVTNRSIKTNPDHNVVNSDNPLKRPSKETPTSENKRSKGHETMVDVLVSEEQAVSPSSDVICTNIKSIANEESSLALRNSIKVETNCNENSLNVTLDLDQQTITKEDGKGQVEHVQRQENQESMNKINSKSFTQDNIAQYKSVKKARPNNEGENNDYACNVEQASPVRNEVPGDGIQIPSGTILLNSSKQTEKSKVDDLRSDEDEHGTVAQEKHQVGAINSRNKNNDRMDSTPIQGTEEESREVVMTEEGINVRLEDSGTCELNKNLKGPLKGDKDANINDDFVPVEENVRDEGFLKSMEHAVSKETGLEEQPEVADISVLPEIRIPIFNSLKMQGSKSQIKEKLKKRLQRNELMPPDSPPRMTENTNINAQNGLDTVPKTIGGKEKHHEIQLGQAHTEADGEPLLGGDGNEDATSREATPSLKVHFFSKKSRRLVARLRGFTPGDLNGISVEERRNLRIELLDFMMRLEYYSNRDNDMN

- binding [1]: binds
Molecule: Sen1, endogenously expressed (tag not stated) (from UniProt Q00416 1-2231)

- binding [1]: binds
Molecule: Rif1 (Rap1-interacting factor 1), endogenously expressed (tag not stated) (from UniProt P29539 1-1916)

- binding [2]: binds
B1: Rap1, endogenously expressed (tag not stated) (protein, UniProt P11938 1-827)
chain: MSSPDDFETAPAEYVDALDPSMVVVDSGSAAVTAPSDSAAEVKANQNEENTGATAAETSEKVDQTEVEKKDDDDTTEVGVTTTTPSIADTAATANIASTSGASVTEPTTDDTAADEKKEQVSGPPLSNMKFYLNRDADAHDSLNDIDQLARLIRANGGEVLDSKPRESKENVFIVSPYNHTNLPTVTPTYIKACCQSNSLLNMENYLVPYDNFREVVDSRLQEESHSNGVDNSNSNSDNKDSIRPKTEIISTNTNGATEDSTSEKVMVDAEQQARLQEQAQLLRQHVSSTASITSGGHNDLVQIEQPQKDTSNNNNSNVNDEDNDLLTQDNNPQTADEGNASFQAQRSMISRGALPSHNKASFTDEEDEFILDVVRKNPTRRTTHTLYDEISHYVPNHTGNSIRHRFRVYLSKRLEYVYEVDKFGKLVRDDDGNLIKTKVLPPSIKRKFSADEDYTLAIAVKKQFYRDLFQIDPDTGRSLITDEDTPTAIARRNMTMDPNHVPGSEPNFAAYRTQSRRGPIAREFFKHFAEEHAAHTENAWRDRFRKFLLAYGIDDYISYYEAEKAQNREPEPMKNLTNRPKRPGVPTPGNYNSAAKRARNYSSQRNVQPTANAASANAAAAAAAAASNSYAIPENELLDEDTMNFISSLKNDLSNISNSLPFEYPHEIAEAIRSDFSNEDIYDNIDPDTISFPPKIATTDLFLPLFFHFGSTRQFMDKLHEVISGDYEPSQAEKLVQDLCDETGIRKNFSTSILTCLSGDLMVFPRYFLNMFKDNVNPPPNVPGIWTHDDDESLKSNDQEQIRKLVKKHGTGRMEMRKRFFEKDLL

Source: paper PMC10336126
